Eight molecules from publication PMC11957390 can be followed below.

Like-named read-outs stand apart in the source and are kept apart here. No constants are given. Whether binding was seen depends on the method and setting. Binding seen in cells or lysates may run through a third protein. Some results given as binding are weak or reduced against the parent protein; the word gives no strength. For some assays here: Tags and fused reporters may be left off the sequences shown.

The target of assay [1] is Myc-LSDV012 (Lumpy skin disease virus). In words: co-IP.
For assay [2] the target is unchanged. In words: co-IP. This is another data set of the same source.

As to “bovine GFP-IFIT2 (from UniProt F1MQW8 1-463)”, in assay [1], the binding entry was “binds”.

With “bovine GFP-IFIT5 (from UniProt F6QAR8 1-482)”, the binding result in assay [1] was “binds”.

B1: human GFP-IFIT5 (protein, UniProt Q13325 1-482)
chain: MSEIRKDTLKAILLELECHFTWNLLKEDIDLFEVEDTIGQQLEFLTTKSRLALYNLLAYVKHLKGQNKDALECLEQAEEIIQQEHSDKEEVRSLVTWGNYAWVYYHMDQLEEAQKYTGKIGNVCKKLSSPSNYKLECPETDCEKGWALLKFGGKYYQKAKAAFEKALEVEPDNPEFNIGYAITVYRLDDSDREGSVKSFSLGPLRKAVTLNPDNSYIKVFLALKLQDVHAEAEGEKYIEEILDQISSQPYVLRYAAKFYRRKNSWNKALELLKKALEVTPTSSFLHHQMGLCYRAQMIQIKKATHNRPKGKDKLKVDELISSAIFHFKAAMERDSMFAFAYTDLANMYAEGGQYSNAEDIFRKALRLENITDDHKHQIHYHYGRFQEFHRKSENTAIHHYLEALKVKDRSPLRTKLTSALKKLSTKRLCHNALDVQSLSALGFVYKLEGEKRQAAEYYEKAQKIDPENAEFLTALCELRLSI
Take B1: the binding entry in assay [2] is reported as “binds”.

B2: endogenous IFIT5 (A549) (protein, UniProt Q13325 1-482)
chain: B1 chain
With B2, the binding result in assay [2] is reported as “binds”.

B3: endogenous IFIT2 (A549) (protein, UniProt P09913 1-472)
chain: MSENNKNSLESSLRQLKCHFTWNLMEGENSLDDFEDKVFYRTEFQNREFKATMCNLLAYLKHLKGQNEAALECLRKAEELIQQEHADQAEIRSLVTWGNYAWVYYHMGRLSDVQIYVDKVKHVCEKFSSPYRIESPELDCEEGWTRLKCGGNQNERAKVCFEKALEKKPKNPEFTSGLAIASYRLDNWPPSQNAIDPLRQAIRLNPDNQYLKVLLALKLHKMREEGEEEGEGEKLVEEALEKAPGVTDVLRSAAKFYRRKDEPDKAIELLKKALEYIPNNAYLHCQIGCCYRAKVFQVMNLRENGMYGKRKLLELIGHAVAHLKKADEANDNLFRVCSILASLHALADQYEDAEYYFQKEFSKELTPVAKQLLHLRYGNFQLYQMKCEDKAIHHFIEGVKINQKSREKEKMKDKLQKIAKMRLSKNGADSEALHVLAFLQELNEKMQQADEDSERGLESGSLIPSASSWNGE
Take B3: in assay [2], the binding result is “binds”.

B4: human GFP-IFIT2 (protein, UniProt P09913 1-472)
chain: B3 chain
As for B4, the binding result in assay [2] is on record as “binds”.

B5: endogenous IFIT1 (A549) (protein, UniProt P09914 1-478)
chain: MSTNGDDHQVKDSLEQLRCHFTWELSIDDDEMPDLENRVLDQIEFLDTKYSVGIHNLLAYVKHLKGQNEEALKSLKEAENLMQEEHDNQANVRSLVTWGNFAWMYYHMGRLAEAQTYLDKVENICKKLSNPFRYRMECPEIDCEEGWALLKCGGKNYERAKACFEKVLEVDPENPESSAGYAISAYRLDGFKLATKNHKPFSLLPLRQAVRLNPDNGYIKVLLALKLQDEGQEAEGEKYIEEALANMSSQTYVFRYAAKFYRRKGSVDKALELLKKALQETPTSVLLHHQIGLCYKAQMIQIKEATKGQPRGQNREKLDKMIRSAIFHFESAVEKKPTFEVAHLDLARMYIEAGNHRKAEENFQKLLCMKPVVEETMQDIHFHYGRFQEFQKKSDVNAIIHYLKAIKIEQASLTRDKSINSLKKLVLRKLRRKALDLESLSLLGFVYKLEGNMNEALEYYERALRLAADFENSVRQGP
Turning to B5, the binding result in assay [2] was “binds”.

B6: human GFP-IFIT1 (protein, UniProt P09914 1-478)
chain: B5 chain
On to B6, for which the binding entry in assay [2] is “binds”.
